{
  "sequences": {"note": "Protein sequences, listed by entry. Tags and fused reporters are not part of them.", "UniProt Q02248": "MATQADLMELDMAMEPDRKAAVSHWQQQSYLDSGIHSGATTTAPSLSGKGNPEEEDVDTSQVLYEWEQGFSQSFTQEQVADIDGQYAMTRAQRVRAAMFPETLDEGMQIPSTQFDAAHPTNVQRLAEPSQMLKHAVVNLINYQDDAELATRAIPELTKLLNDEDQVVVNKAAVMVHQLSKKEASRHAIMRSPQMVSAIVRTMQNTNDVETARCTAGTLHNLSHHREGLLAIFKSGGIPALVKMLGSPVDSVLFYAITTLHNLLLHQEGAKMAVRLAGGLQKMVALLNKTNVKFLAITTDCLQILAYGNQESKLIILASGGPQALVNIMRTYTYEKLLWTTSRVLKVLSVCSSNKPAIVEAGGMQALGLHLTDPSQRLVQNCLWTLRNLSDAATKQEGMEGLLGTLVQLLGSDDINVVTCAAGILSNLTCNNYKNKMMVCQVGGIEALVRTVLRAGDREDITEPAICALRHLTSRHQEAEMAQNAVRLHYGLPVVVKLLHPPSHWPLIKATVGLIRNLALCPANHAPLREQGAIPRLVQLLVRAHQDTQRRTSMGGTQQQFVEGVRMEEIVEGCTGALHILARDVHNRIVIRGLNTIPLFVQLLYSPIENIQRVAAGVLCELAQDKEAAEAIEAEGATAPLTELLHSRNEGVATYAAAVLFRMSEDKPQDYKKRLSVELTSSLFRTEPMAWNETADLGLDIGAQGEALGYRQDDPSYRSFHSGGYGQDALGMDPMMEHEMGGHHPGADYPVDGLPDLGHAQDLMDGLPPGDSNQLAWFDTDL"},
  "source": "paper PMC9177963",
  "biological_target": "T1, USP26 (ubiquitin-specific protease 26) (mouse (endogenous in mouse MSCs and BMMs)) (UniProt Q99MX1)",
  "T1 sequence": "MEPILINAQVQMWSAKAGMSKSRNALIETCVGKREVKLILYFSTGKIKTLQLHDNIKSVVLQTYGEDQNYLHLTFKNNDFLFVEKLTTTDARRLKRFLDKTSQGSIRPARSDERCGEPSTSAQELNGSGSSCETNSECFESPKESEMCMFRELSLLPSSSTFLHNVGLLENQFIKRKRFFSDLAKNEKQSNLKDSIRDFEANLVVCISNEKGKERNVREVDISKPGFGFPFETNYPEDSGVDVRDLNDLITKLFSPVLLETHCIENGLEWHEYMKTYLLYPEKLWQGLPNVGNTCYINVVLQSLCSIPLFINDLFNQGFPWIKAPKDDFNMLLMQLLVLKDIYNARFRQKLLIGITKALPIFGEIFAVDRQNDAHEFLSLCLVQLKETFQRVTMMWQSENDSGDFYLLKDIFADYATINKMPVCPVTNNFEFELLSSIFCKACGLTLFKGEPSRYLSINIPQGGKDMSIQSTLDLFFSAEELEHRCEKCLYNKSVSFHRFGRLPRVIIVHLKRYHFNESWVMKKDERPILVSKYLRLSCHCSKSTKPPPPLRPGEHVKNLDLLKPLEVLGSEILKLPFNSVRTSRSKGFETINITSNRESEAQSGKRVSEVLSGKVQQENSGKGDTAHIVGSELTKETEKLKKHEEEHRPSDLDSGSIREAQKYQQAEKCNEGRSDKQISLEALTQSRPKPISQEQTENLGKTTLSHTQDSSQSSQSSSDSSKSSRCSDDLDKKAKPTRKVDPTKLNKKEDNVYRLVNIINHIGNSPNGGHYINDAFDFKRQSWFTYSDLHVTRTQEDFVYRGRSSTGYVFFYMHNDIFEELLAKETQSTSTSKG",
  "assay": "affinity purification with mass spectrometry; supernatant of mouse MSC lysates incubated with anti-USP26 antibody overnight at 4 °C, protein A + G beads; eluate on SDS-PAGE, silver stained, gel bands analysed by LC-MS/MS",
  "note": "No constants are given. Whether binding was seen depends on the method and setting. Binding seen in cells or lysates may run through a third protein. Here binding means that the protein was enriched with, or labelled near, the bait; the list need not be complete.",
  "data": [
    {"substance": "β-catenin (from UniProt Q02248 1-781)", "values": [
      {"measurement": "binding", "result": "binds"}
    ]}
  ]
}
